Library screen at single concentrations

Amino acid sequences for entries named in this document (tags omitted). Residues count along the entry.
UniProt I6X8D2, whole entry: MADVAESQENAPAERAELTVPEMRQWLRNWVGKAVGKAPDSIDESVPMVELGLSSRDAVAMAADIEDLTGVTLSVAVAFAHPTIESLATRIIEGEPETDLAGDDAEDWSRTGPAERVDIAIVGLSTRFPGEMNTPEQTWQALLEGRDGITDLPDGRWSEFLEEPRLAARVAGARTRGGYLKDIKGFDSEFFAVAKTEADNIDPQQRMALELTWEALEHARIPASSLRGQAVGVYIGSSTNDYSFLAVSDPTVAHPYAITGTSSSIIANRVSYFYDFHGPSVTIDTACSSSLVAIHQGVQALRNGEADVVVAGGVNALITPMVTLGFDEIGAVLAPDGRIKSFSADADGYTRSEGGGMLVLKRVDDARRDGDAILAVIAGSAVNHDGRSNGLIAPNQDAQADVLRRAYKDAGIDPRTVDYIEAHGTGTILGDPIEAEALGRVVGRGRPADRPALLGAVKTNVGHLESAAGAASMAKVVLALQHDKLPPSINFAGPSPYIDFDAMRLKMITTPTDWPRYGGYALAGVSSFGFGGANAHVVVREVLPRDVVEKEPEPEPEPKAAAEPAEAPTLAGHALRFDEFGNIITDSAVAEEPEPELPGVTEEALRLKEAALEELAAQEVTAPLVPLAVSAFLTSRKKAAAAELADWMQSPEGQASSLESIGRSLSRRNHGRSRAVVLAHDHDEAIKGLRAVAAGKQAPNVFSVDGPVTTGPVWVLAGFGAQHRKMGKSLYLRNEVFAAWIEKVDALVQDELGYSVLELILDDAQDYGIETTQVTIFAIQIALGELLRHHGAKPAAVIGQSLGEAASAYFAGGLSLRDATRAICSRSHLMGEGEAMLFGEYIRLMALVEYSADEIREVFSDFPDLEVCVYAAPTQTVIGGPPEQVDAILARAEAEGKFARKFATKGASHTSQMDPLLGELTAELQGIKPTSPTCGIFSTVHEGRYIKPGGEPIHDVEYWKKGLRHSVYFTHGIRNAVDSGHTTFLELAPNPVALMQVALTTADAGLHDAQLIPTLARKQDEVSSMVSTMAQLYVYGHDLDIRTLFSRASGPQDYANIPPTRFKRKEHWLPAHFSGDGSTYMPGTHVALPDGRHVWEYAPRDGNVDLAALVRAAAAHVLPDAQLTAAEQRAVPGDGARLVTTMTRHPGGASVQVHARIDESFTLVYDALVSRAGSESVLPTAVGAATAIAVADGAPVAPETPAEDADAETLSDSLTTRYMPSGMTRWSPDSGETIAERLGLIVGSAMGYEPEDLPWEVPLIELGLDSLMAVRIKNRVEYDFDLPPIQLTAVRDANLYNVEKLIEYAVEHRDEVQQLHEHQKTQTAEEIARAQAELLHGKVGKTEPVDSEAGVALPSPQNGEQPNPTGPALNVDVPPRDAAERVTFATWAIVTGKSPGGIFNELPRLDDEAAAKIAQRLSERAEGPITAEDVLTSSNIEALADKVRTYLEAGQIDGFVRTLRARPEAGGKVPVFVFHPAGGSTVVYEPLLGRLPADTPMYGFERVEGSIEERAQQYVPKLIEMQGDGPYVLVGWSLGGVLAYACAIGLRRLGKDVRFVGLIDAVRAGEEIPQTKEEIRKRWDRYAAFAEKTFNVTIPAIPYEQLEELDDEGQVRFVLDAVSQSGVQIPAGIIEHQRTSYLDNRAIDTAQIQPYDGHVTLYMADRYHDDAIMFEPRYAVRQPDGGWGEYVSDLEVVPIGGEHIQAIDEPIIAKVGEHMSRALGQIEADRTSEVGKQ
UniProt Q4DA54, 1-478: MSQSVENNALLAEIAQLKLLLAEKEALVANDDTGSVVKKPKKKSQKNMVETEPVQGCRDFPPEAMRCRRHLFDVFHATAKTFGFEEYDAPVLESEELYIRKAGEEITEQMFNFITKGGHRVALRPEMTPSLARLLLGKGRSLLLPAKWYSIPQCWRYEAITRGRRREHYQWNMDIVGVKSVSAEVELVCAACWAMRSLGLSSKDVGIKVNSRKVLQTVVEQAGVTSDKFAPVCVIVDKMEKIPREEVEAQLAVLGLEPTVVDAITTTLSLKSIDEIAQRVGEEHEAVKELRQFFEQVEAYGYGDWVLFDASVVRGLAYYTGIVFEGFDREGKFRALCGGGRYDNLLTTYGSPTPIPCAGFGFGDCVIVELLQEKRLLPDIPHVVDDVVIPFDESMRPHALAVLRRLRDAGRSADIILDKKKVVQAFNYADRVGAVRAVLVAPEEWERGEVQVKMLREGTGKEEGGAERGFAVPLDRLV
UniProt A4I591, 1-473: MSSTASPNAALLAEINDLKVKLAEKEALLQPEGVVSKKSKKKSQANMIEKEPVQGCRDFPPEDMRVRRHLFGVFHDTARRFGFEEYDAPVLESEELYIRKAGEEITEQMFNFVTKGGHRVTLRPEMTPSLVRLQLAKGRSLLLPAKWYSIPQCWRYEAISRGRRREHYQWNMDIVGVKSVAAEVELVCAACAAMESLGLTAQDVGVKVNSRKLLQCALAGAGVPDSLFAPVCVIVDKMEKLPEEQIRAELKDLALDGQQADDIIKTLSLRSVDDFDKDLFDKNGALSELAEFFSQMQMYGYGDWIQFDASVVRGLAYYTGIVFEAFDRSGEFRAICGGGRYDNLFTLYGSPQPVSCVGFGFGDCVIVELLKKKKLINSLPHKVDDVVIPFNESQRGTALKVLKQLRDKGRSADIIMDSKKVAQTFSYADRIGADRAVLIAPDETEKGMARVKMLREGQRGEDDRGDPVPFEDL

The values are deposited in ChEMBL (CHEMBL3988442, “University of Dundee, Small-Polar-MMV Screening Library” (2021)).

Values are the deposited “Percent Effect”, in %. The record does not define 0% and 100%; most values in the screen are far below 50% and negative numbers occur (in some assays of this library far below -100). This is an unselected part of the compounds tested.

Pks13 thioesterase: 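Polyketide synthase Pks13, Mycobacterium tuberculosis (UniProt I6X8D2). Enzyme assay of the thioesterase domain of polyketide synthase 13; the read-out is not stated. Tested at 30 µM. Higher reads as stronger inhibition (inferred from which compounds were picked for retests). Of about 67,000 compounds tested this way, about 300 (0.46%) reached 50% or more in at least one test.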
TcHisRS: 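Enzyme assay of histidyl-tRNA synthetase; the read-out is not stated. Target: Histidine-tRNA ligase, Trypanosoma cruzi CL Brener (UniProt Q4DA54). Concentration: 30 µM. The record gives no direction; compounds that gave an IC50 in retests scored well above the rest, so higher reads as stronger inhibition. Of about 69,000 compounds tested this way, about 31 (0.045%) reached 50% or more in at least one test.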
LiHisRS: 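Enzyme assay of histidyl-tRNA synthetase; the read-out is not stated. Target: Histidine-tRNA ligase, Leishmania infantum (UniProt A4I591). Concentration: 30 µM. The record gives no direction; compounds that gave an IC50 in retests scored well above the rest, so higher reads as stronger inhibition. The assay is labelled LdHisRS but filed under L. infantum. Size under these conditions: about 69,000 compounds, about 410 of them at 50% or above in at least one test.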

{"compound": "Cc1ncsc1CNC(=O)NCC1(c2ccc3c(c2)OCO3)CC1", "Pks13 thioesterase": -12.73, "TcHisRS": 2.97, "LiHisRS": -1.099}
{"compound": "O=C(c1ccc2[nH]cnc2c1)N1CCCC1Cn1cccn1", "stereo": "stereo unspecified", "Pks13 thioesterase": 6.515, "TcHisRS": 13.33, "LiHisRS": 11.71}
{"compound": "CSCC[C@H](NC(=O)Cn1ccc2c(Cl)cccc21)C(=O)O", "Pks13 thioesterase": -19.48, "TcHisRS": 4.918, "LiHisRS": 15.53}
{"compound": "CN1CCC(CNC(=O)c2cccc(CN3CCCCCC3)c2)C1", "stereo": "stereo unspecified", "Pks13 thioesterase": -9.601, "TcHisRS": 4.95, "LiHisRS": 44.57}
{"compound": "O=c1[nH]c(NC2CCCC2)nc2nccc(-c3ccsc3)c12", "Pks13 thioesterase": 43.04, "TcHisRS": 8.081, "LiHisRS": 3.279}
{"compound": "Cc1ccnc(C2CN(Cc3ccc(-c4ccccc4C(=O)O)o3)C2)n1", "Pks13 thioesterase": 16.5, "TcHisRS": 49.24, "LiHisRS": 32.39}
{"compound": "CO[C@@H]1CC[C@H]2[C@H]1OCCN2CC1CCOCC1", "Pks13 thioesterase": -23.17, "TcHisRS": -1.604, "LiHisRS": 11.54}
{"compound": "COc1ccc(OCC(O)CN2CCN(c3nccs3)CC2)cc1", "stereo": "stereo unspecified", "Pks13 thioesterase": 31.29, "TcHisRS": 8.333, "LiHisRS": 15.18}
{"compound": "CC(=O)c1cc2c(=O)[nH]c(=O)n(C)c2nc1C", "Pks13 thioesterase": -1.673, "TcHisRS": 8.247, "LiHisRS": 16.48}
{"compound": "COc1cccc2c1OCC(C(=O)N(Cc1ccncc1)CC(C)C)C2", "stereo": "stereo unspecified", "TcHisRS": 10.59, "LiHisRS": 13.49}
{"compound": "CN1CCCC(c2ccnc(C(=O)NCC3CC3)c2)C1", "stereo": "stereo unspecified", "Pks13 thioesterase": 0.2956, "TcHisRS": 3.731, "LiHisRS": 7.368}
{"compound": "Cn1c(Cn2cccn2)nnc1C1CCCN(c2ccncc2F)C1", "stereo": "stereo unspecified", "Pks13 thioesterase": -7.549, "TcHisRS": 4.959, "LiHisRS": 13.33}
{"compound": "O[C@@H]1CN(Cc2ccc(F)c(F)c2)CC[C@H]1NCc1ccccn1", "Pks13 thioesterase": -5.814, "TcHisRS": 6.061, "LiHisRS": 1.408}
{"compound": "CC(C)(C)n1ncc2c1NC(=O)CC2c1cccc(F)c1", "stereo": "stereo unspecified", "Pks13 thioesterase": -10.53, "TcHisRS": 1.212, "LiHisRS": 0}
{"compound": "CN(C)C(=O)c1cnc2n1CCN(Cc1ccc3c(c1)OCO3)C2", "Pks13 thioesterase": -9.427, "TcHisRS": 9.804, "LiHisRS": 28}
{"compound": "O=C(Nc1ccc2c(c1)OC1(CCCCC1)O2)c1ccc(=O)[nH]n1", "Pks13 thioesterase": 9.187, "TcHisRS": 2.02, "LiHisRS": 12.7}
{"compound": "NC(=O)c1cc2c(nc1CC1CCCCO1)CCC2", "stereo": "stereo unspecified", "Pks13 thioesterase": 2.108, "TcHisRS": 0, "LiHisRS": 9.804}
{"compound": "CC1CCCCN1C(=O)c1ccc(=O)[nH]n1", "stereo": "stereo unspecified", "Pks13 thioesterase": 1.029, "TcHisRS": 0, "LiHisRS": 24.29}
{"compound": "N#Cc1ccc(OCCN2CCn3c(nnc3C3CC3)C2)cc1", "Pks13 thioesterase": -25.43, "TcHisRS": 4.52, "LiHisRS": 1.724}
{"compound": "Cc1nc(C)c(C(=O)NCCNc2ncccc2C#N)s1", "Pks13 thioesterase": -2.129, "TcHisRS": 1.141, "LiHisRS": 21.88}
{"compound": "O=C(Nc1ccc(-c2csnn2)cc1)N1CCC(N2CCCC2)C1", "stereo": "stereo unspecified", "Pks13 thioesterase": -10.41, "TcHisRS": 7.595, "LiHisRS": 8.333}
{"compound": "OCCC1CCN(c2ccnc3ccsc23)C1", "stereo": "stereo unspecified", "Pks13 thioesterase": -14.27, "TcHisRS": 12.17, "LiHisRS": 17.33}
{"compound": "CNC(=O)CC1CCN(C(=O)NCc2cn3c(C)cccc3n2)CC1", "Pks13 thioesterase": -12.94, "TcHisRS": 4.819, "LiHisRS": 17.95}
{"compound": "O=C(Cn1ccc2c(Cl)cccc21)N[C@@H](C(=O)O)c1ccccc1", "Pks13 thioesterase": -28.09, "TcHisRS": 6.011, "LiHisRS": 13.59}
{"compound": "OC[C@@H](O)CN(CCC(F)(F)F)c1ncc(Br)cn1", "Pks13 thioesterase": -13.67, "TcHisRS": 5.882, "LiHisRS": -31.58}
{"compound": "Cc1nc2ccccc2nc1NCc1cccc(OCC2CCCO2)c1", "stereo": "stereo unspecified", "Pks13 thioesterase": 1.987, "TcHisRS": 7, "LiHisRS": -2.174}
{"compound": "CCC(NC1CCN(S(C)(=O)=O)CC1)c1cccs1", "stereo": "stereo unspecified", "Pks13 thioesterase": -38.05, "TcHisRS": 2.424, "LiHisRS": 12.99}
{"compound": "Cc1cc(NCCO)nc(N2CCC(Cc3ccccc3)CC2)c1C#N", "Pks13 thioesterase": 29.4, "TcHisRS": 12.2, "LiHisRS": 10.17}
{"compound": "COc1ccc(N(Cc2ccco2)C(=O)C2CCOC2)cc1F", "stereo": "stereo unspecified", "Pks13 thioesterase": -16.93, "TcHisRS": 1.587, "LiHisRS": -29.41}
{"compound": "CC(CC(=O)O)CC(=O)Nc1sc2c(c1C(N)=O)CCc1ccccc1-2", "stereo": "stereo unspecified", "Pks13 thioesterase": -1.455, "TcHisRS": 6, "LiHisRS": -2.174}
{"compound": "COCCC1(CNC(=O)NCC2CCC2)CCC1", "Pks13 thioesterase": -22.86, "TcHisRS": 4.712, "LiHisRS": 8.621}

Some entries from above, unchanged:

{"compound": "CN(C)C(=O)c1cnc2n1CCN(Cc1ccc3c(c1)OCO3)C2", "Pks13 thioesterase": -9.427, "TcHisRS": 9.804, "LiHisRS": 28}
{"compound": "COc1ccc(N(Cc2ccco2)C(=O)C2CCOC2)cc1F", "stereo": "stereo unspecified", "Pks13 thioesterase": -16.93, "TcHisRS": 1.587, "LiHisRS": -29.41}